{"source": "PubChem BioAssay AID1259259 (Sanger Institute, 2017)", "purpose": "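Kinase silencing that lowers colorectal cancer cell viability alone or with drugs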 (primary screen)", "cell system": "SW1463 human colorectal cancer cells", "reagents": "siRNA pool against human genes", "challenge": "DMSO vehicle, or one anchor drug: BYL719 at 1 µM, cetuximab at 5 µg/ml, or trametinib at 10 nM", "read-out": "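Viability as fraction of control pool 2 (non-targeting), replicate mean; knock-down robust z-score without any drug; synergy score averaged for each anchor drug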", "direction": "robust z-score, knock-down alone: higher = more viable cells after knock-down; viability, knock-down alone: higher = more viable cells", "units": "viability, knock-down alone in fraction of control", "rule for the call": "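a robust z-score under -3 for knock-down with no drug marks the gene as essential, meaning viability loss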", "meaning of the calls": "active = essential: viability loss from knock-down alone; inactive = no change from knock-down alone", "note": "Shown is an unselected part of 794 deposited reagents. In the full data, 9 (1.1%) are marked active. 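Calls rest on knock-down alone, not drug synergy; viability values seem capped at 1.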 Entries without a mark were called inactive. Not all columns of the deposit are shown. Not given: the amount of reagent, the time to read-out."}
{"gene symbol": "PACSIN1 (GeneID 29993)", "robust z-score, knock-down alone": 0.514, "viability, knock-down alone": 0.961}
{"gene symbol": "PRKAG2 (GeneID 51422)", "robust z-score, knock-down alone": 0.67, "viability, knock-down alone": 0.971}
{"gene symbol": "STK39 (GeneID 27347)", "robust z-score, knock-down alone": 0.874, "viability, knock-down alone": 0.984}
{"gene symbol": "MYLK3 (GeneID 91807)", "robust z-score, knock-down alone": -0.886, "viability, knock-down alone": 0.871}
{"gene symbol": "CALM3 (GeneID 808)", "robust z-score, knock-down alone": -1.73, "viability, knock-down alone": 0.817}
{"gene symbol": "EFNA5 (GeneID 1946)", "robust z-score, knock-down alone": 0.725, "viability, knock-down alone": 0.974}
{"gene symbol": "CSNK1G2 (GeneID 1455)", "robust z-score, knock-down alone": 0.237, "viability, knock-down alone": 0.943}
{"gene symbol": "RPS6KB2 (GeneID 6199)", "robust z-score, knock-down alone": 1.13, "viability, knock-down alone": 1}
{"gene symbol": "GK2 (GeneID 2712)", "robust z-score, knock-down alone": 0.263, "viability, knock-down alone": 0.945}
{"gene symbol": "MAPK12 (GeneID 6300)", "robust z-score, knock-down alone": 1.13, "viability, knock-down alone": 1}
{"gene symbol": "MAPK8 (GeneID 5599)", "robust z-score, knock-down alone": 0.589, "viability, knock-down alone": 0.965}
{"gene symbol": "PRKAB2 (GeneID 5565)", "robust z-score, knock-down alone": -0.957, "viability, knock-down alone": 0.866}
{"gene symbol": "MARK3 (GeneID 4140)", "robust z-score, knock-down alone": -0.428, "viability, knock-down alone": 0.9}

Not a retest: 3 of the entries above.
{"gene symbol": "CALM3 (GeneID 808)", "robust z-score, knock-down alone": -1.73, "viability, knock-down alone": 0.817}
{"gene symbol": "EFNA5 (GeneID 1946)", "robust z-score, knock-down alone": 0.725, "viability, knock-down alone": 0.974}
{"gene symbol": "CSNK1G2 (GeneID 1455)", "robust z-score, knock-down alone": 0.237, "viability, knock-down alone": 0.943}

Additional records follow.
{"gene symbol": "PAPSS2 (GeneID 9060)", "robust z-score, knock-down alone": -1.69, "viability, knock-down alone": 0.819}
{"gene symbol": "NTRK3 (GeneID 4916)", "robust z-score, knock-down alone": -0.137, "viability, knock-down alone": 0.919}
{"gene symbol": "MAP4K3 (GeneID 8491)", "robust z-score, knock-down alone": -0.408, "viability, knock-down alone": 0.901}
{"gene symbol": "CDK5R2 (GeneID 8941)", "robust z-score, knock-down alone": 0.984, "viability, knock-down alone": 0.991}
{"gene symbol": "NLK (GeneID 51701)", "robust z-score, knock-down alone": -0.449, "viability, knock-down alone": 0.899}
{"gene symbol": "TEX14 (GeneID 56155)", "robust z-score, knock-down alone": 0.624, "viability, knock-down alone": 0.968}
{"gene symbol": "NEK2 (GeneID 4751)", "robust z-score, knock-down alone": 0.85, "viability, knock-down alone": 0.982}
{"gene symbol": "GRK3 (GeneID 157)", "robust z-score, knock-down alone": 1.13, "viability, knock-down alone": 1}
{"gene symbol": "PHKG1 (GeneID 5260)", "robust z-score, knock-down alone": 0.129, "viability, knock-down alone": 0.936}
{"gene symbol": "PAK2 (GeneID 5062)", "robust z-score, knock-down alone": 1.13, "viability, knock-down alone": 1}
{"gene symbol": "PIK3R5 (GeneID 23533)", "robust z-score, knock-down alone": 1.13, "viability, knock-down alone": 1}
{"gene symbol": "CREBBP (GeneID 1387)", "robust z-score, knock-down alone": -0.682, "viability, knock-down alone": 0.884}
{"gene symbol": "TNNI3K (GeneID 51086)", "robust z-score, knock-down alone": 0.64, "viability, knock-down alone": 0.969}
{"gene symbol": "TJP2 (GeneID 9414)", "robust z-score, knock-down alone": -0.18, "viability, knock-down alone": 0.916}
{"gene symbol": "TEK (GeneID 7010)", "robust z-score, knock-down alone": -0.377, "viability, knock-down alone": 0.903}
{"gene symbol": "CAMKK1 (GeneID 84254)", "robust z-score, knock-down alone": 0.0732, "viability, knock-down alone": 0.932}
{"gene symbol": "RPS6KA6 (GeneID 27330)", "robust z-score, knock-down alone": -0.318, "viability, knock-down alone": 0.907}
{"gene symbol": "ANKK1 (GeneID 255239)", "robust z-score, knock-down alone": 0.418, "viability, knock-down alone": 0.954}
{"gene symbol": "WT1 (GeneID 7490)", "robust z-score, knock-down alone": 0.952, "viability, knock-down alone": 0.989}
{"gene symbol": "NTRK2 (GeneID 4915)", "robust z-score, knock-down alone": 1.13, "viability, knock-down alone": 1}
{"gene symbol": "NEK5 (GeneID 341676)", "robust z-score, knock-down alone": -0.607, "viability, knock-down alone": 0.889}
{"gene symbol": "LTK (GeneID 4058)", "robust z-score, knock-down alone": 1.13, "viability, knock-down alone": 1}
{"gene symbol": "ROR1 (GeneID 4919)", "robust z-score, knock-down alone": 1.11, "viability, knock-down alone": 0.999}
